This passage reports binding results from patent publication US20140363377A1.

Chains of the proteins cited; added tags and fusions are not shown.
UniProt Q14790: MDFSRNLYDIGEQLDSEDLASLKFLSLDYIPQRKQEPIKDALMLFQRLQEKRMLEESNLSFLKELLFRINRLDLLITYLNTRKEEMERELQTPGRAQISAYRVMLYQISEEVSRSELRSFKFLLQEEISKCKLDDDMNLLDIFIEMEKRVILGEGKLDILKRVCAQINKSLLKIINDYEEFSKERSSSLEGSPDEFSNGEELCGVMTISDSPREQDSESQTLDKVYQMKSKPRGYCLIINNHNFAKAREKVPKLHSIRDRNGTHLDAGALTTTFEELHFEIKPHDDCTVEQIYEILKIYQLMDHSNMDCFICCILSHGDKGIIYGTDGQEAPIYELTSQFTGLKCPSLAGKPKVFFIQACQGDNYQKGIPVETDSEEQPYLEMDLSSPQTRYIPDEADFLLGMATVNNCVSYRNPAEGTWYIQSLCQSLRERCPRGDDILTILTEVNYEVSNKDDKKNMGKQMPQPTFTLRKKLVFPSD

The assay addresses Procaspase 8, endogenous, in human cancer cell lysates (human) (UniProt Q14790). In words: immunoprecipitation with anti-histidine tag or anti-Caspase 8 antibody.

Results are given in words; binding and its absence hold for the method and conditions named. Some binding calls cover weakened binding; strength is not graded here.

B1: truncated SPARC polypeptide comprising a sequence near the SPARC amino terminus (SEQ ID NO: 20) (protein)
chain: APQQEALPDETEVVEETVAEVTEVSVGANPVQVEVGEFDDGAEETEEEVVA
As to B1, the binding entry is “binds”.
